The other results are listed elsewhere or left out.
Assays:
Test in all cases: log2 fold change, soluble protein after heating vs DMSO (PISA); higher = thermal stabilisation; K562 cells, 10 uM, 30 min; active = over 0.2 and 3.5 SD of the protein, either way, in both replicates (recomputed)
[1] = compound: COC1=CC=C(C=C1)CN2C=CC3=C2C=C(C=C3)C(=O)NO
Summary of the method: (§1)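 Soluble protein was quantified by TMTpro 16plex LC-MS/MS after channel sums were equalised. It was obtained as the supernatant after 21,000xg for 90 min from pooled aliquots of K562 cells (2×10^6 cells/mL, 10 μM compound, 30 min) heated for 3 min across 48°C-58°C and extracted in PBS with 0.5% NP-40 at 4°C. Thermal stability values are relative to control samples and come from duplicates. They are given as log2 fold changes.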

Protein sequences, listed by entry. Tags and fused reporters are not part of them. Lines headed by an entry give the natural chain unless they say otherwise; changes in a name come on top.
UniProt Q9Y4E8: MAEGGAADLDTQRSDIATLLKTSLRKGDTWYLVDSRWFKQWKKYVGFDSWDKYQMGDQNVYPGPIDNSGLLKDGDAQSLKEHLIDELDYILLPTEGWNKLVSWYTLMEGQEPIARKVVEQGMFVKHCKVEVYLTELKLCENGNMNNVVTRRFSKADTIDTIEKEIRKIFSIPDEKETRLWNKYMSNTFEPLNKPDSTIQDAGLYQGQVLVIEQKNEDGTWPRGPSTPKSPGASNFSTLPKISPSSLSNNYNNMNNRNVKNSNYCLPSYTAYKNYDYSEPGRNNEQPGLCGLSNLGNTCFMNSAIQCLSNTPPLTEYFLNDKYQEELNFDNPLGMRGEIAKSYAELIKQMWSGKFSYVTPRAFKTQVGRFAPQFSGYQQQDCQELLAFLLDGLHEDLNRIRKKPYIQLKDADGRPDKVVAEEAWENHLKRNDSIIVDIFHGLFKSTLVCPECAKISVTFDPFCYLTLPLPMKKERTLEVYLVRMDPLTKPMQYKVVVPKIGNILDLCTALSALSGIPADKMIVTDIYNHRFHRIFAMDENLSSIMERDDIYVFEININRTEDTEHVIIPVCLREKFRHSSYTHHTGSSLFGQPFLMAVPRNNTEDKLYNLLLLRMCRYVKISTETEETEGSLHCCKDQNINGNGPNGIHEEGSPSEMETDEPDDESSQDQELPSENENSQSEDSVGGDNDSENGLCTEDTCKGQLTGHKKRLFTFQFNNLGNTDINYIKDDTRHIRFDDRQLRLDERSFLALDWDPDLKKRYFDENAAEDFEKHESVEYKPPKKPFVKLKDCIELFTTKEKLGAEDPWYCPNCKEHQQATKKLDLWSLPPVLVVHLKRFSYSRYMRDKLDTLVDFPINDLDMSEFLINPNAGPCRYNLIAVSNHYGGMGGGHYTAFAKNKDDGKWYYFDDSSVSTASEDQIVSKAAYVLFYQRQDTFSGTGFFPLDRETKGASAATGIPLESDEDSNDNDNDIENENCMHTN
UniProt P22695: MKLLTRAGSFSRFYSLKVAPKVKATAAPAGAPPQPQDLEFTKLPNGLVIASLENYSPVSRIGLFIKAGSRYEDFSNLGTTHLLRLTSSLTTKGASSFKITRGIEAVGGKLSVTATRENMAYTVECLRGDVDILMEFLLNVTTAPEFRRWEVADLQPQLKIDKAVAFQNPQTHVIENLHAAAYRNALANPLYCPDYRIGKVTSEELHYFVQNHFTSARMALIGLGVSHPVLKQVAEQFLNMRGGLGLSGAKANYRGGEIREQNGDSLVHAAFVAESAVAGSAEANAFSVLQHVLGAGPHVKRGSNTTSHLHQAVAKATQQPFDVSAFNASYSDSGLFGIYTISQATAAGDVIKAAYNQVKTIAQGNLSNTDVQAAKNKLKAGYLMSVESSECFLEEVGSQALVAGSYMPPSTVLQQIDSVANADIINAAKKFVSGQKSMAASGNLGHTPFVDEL
UniProt Q9BZX2: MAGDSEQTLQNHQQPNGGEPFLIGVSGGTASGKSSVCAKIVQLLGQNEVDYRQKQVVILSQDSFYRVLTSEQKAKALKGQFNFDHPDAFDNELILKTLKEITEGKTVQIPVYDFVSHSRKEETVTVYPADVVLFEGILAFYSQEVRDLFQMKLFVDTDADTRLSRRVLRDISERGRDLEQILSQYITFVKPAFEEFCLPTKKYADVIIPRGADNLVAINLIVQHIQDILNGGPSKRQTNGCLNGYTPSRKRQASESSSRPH
UniProt Q96BW1: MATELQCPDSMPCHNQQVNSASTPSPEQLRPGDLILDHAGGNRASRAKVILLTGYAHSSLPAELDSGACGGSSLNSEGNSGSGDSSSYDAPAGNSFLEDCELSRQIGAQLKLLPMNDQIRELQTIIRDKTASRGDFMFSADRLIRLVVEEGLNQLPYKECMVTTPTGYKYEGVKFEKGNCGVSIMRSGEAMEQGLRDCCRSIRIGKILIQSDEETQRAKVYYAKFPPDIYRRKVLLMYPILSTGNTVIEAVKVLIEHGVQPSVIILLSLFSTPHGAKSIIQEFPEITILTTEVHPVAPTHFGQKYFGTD
UniProt Q9H1C4: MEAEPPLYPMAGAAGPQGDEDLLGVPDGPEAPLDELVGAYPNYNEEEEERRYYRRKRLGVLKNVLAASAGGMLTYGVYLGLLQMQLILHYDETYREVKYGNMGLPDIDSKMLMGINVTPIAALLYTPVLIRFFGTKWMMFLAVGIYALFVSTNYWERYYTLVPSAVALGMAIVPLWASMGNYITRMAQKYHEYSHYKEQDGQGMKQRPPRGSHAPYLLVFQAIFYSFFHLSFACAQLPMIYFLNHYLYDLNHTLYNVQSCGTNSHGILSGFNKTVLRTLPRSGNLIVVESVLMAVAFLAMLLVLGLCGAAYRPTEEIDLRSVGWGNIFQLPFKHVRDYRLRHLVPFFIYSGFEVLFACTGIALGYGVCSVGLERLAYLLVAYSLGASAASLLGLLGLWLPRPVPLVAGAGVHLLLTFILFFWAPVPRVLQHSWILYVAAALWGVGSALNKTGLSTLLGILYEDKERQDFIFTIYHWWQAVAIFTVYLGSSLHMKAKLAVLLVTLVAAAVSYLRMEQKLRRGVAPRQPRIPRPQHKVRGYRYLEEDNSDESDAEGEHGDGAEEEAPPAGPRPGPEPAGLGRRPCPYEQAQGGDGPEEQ
UniProt Q14139: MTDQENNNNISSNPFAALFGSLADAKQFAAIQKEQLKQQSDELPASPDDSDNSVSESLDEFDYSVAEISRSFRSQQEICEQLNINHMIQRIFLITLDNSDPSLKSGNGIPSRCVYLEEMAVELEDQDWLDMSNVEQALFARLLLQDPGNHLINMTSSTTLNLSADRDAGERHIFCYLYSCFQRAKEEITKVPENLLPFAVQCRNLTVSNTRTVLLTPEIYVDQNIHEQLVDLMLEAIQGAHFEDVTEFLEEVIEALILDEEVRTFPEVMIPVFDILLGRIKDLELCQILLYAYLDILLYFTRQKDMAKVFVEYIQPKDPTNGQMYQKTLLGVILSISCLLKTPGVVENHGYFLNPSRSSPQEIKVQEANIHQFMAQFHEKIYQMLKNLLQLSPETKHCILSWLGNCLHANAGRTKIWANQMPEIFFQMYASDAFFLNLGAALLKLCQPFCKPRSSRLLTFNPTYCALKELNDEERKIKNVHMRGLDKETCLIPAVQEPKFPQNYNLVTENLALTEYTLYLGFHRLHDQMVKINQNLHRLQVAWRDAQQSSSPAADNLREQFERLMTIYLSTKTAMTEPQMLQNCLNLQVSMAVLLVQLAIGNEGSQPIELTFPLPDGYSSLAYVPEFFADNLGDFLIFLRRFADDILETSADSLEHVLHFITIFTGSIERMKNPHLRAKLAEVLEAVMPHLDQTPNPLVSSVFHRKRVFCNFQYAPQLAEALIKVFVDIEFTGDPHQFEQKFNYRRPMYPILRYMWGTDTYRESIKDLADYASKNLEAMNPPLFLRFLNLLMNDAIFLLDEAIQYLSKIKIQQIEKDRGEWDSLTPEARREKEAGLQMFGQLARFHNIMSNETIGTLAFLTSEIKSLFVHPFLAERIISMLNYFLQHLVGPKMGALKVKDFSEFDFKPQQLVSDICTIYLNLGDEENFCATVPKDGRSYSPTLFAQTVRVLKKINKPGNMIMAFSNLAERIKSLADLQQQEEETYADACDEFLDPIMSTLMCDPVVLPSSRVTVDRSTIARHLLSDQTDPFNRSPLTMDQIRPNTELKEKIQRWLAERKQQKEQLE
UniProt O94874: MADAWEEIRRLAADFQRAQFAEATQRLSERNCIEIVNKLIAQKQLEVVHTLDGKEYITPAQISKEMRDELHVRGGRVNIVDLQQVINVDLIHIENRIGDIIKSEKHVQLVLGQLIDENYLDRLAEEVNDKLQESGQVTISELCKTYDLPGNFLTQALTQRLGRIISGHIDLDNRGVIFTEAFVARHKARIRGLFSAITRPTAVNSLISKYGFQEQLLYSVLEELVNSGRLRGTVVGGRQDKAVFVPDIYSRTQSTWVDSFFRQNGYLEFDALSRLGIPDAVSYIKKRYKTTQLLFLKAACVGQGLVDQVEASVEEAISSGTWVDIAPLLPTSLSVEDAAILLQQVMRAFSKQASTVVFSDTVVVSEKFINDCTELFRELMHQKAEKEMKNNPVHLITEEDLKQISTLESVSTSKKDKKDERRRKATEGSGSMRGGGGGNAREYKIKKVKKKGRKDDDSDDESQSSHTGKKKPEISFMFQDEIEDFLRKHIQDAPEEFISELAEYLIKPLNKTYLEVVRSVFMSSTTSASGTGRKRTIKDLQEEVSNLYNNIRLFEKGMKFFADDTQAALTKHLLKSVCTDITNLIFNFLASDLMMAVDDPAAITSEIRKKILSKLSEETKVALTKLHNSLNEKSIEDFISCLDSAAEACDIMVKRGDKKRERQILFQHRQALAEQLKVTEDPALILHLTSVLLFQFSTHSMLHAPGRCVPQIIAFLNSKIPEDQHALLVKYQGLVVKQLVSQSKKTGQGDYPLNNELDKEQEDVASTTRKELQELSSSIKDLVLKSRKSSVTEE
UniProt P63027, whole entry, looked up: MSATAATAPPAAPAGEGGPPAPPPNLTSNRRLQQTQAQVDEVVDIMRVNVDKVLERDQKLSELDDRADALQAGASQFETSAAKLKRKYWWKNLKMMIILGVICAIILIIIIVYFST
UniProt P11172: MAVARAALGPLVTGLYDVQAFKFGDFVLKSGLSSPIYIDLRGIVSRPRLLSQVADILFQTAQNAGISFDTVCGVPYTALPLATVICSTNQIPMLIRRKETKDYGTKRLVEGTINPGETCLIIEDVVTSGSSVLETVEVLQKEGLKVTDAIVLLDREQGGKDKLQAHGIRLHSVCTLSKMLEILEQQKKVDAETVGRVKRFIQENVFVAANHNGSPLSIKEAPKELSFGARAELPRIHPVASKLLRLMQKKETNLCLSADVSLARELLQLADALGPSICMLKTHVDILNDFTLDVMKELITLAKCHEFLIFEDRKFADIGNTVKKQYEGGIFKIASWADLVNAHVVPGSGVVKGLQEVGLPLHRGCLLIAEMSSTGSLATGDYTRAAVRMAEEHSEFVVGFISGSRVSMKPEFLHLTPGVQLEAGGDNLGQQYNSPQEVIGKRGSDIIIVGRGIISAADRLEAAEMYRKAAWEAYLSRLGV
UniProt P47985: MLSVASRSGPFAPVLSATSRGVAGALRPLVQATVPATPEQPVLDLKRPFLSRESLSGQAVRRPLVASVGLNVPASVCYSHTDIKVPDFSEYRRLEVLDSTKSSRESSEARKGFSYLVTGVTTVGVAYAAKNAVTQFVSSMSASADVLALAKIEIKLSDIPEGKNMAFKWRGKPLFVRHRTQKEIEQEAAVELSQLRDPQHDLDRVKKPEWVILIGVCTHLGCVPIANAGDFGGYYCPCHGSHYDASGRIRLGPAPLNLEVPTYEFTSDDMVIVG
UniProt P18206: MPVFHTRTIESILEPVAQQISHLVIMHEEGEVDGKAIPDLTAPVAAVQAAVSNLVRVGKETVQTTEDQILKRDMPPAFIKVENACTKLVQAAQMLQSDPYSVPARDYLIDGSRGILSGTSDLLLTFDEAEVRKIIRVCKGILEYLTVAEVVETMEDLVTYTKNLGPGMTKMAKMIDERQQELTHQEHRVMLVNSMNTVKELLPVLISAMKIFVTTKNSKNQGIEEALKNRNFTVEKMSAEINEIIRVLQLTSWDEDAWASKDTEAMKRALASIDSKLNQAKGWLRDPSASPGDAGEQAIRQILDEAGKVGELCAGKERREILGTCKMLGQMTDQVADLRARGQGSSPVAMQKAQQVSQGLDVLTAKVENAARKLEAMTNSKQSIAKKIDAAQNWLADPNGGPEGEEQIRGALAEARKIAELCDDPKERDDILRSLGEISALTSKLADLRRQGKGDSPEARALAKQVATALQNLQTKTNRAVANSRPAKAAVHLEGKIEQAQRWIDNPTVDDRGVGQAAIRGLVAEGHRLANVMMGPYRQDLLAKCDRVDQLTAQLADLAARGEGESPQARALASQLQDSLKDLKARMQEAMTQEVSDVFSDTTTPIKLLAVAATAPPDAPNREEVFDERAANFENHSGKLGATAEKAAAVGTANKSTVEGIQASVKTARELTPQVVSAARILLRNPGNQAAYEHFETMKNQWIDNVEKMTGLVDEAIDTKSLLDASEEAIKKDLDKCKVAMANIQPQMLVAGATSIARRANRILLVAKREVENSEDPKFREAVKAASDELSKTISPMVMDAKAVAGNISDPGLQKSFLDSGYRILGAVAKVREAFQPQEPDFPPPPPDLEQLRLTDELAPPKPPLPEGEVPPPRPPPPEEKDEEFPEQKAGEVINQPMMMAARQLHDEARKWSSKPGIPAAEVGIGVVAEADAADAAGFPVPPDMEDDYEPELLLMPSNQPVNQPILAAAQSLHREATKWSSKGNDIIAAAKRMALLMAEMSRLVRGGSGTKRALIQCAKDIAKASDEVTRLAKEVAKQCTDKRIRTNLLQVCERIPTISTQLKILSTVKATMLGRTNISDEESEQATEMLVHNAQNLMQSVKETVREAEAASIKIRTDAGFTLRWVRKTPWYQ
UniProt Q9BRT2: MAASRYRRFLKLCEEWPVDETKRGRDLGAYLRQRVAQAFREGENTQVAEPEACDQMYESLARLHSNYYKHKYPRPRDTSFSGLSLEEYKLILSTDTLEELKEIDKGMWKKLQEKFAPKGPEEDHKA

filanesib = compound: CON(C)C(=O)N1N=C(c2cc(F)ccc2F)S[C@@]1(CCCN)c1ccccc1 [filanesib]
Summary of the method: as §1

zotarolimus = compound: CO[C@H]1C[C@@H]2CC[C@@H](C)[C@@](O)(O2)C(=O)C(=O)N2CCCC[C@H]2C(=O)O[C@H]([C@H](C)C[C@@H]2CC[C@H](n3cnnn3)[C@H](OC)C2)CC(=O)[C@H](C)/C=C(\C)[C@@H](O)[C@@H](OC)C(=O)[C@H](C)C[C@H](C)/C=C/C=C/C=C/1C [zotarolimus]
Summary of the method: as §1

idasanutlin = compound: COc1cc(C(=O)O)ccc1NC(=O)[C@@H]1N[C@@H](CC(C)(C)C)[C@](C#N)(c2ccc(Cl)cc2F)[C@H]1c1cccc(Cl)c1F [idasanutlin]
Summary of the method: as §1

alisertib = compound: COc1cc(Nc2ncc3c(n2)-c2ccc(Cl)cc2C(c2c(F)cccc2OC)=NC3)ccc1C(=O)O [alisertib]
Summary of the method: as §1

[2] = compound: COc1cc2nc(-c3cc(F)ccc3O)nc(N[C@@H]3CNC[C@H]3C(C)(C)O)c2cc1OC
Summary of the method: as §1

gefitinib = compound: COc1cc2ncnc(Nc3ccc(F)c(Cl)c3)c2cc1OCCCN1CCOCC1 [gefitinib]
Summary of the method: as §1

[3] = compound: COc1cccc2cc(-c3nc([C@H]4CC[C@H](C(=O)O)CC4)n4ncnc(N)c34)[nH]c12
Summary of the method: as §1

lapatinib = compound: CS(=O)(=O)CCNCc1ccc(-c2ccc3ncnc(Nc4ccc(OCc5cccc(F)c5)c(Cl)c4)c3c2)o1 [lapatinib]
Summary of the method: as §1

pictilisib = compound: CS(=O)(=O)N1CCN(Cc2cc3nc(-c4cccc5[nH]ncc45)nc(N4CCOCC4)c3s2)CC1 [pictilisib]
Summary of the method: as §1

[4] = compound: CS(=O)(=O)c1ccc(-c2cnc(N)c(C(=O)Nc3ccccc3)n2)cc1
Summary of the method: as §1

crizotinib = compound: C[C@@H](Oc1cc(-c2cnn(C3CCNCC3)c2)cnc1N)c1c(Cl)ccc(F)c1Cl [crizotinib]
Summary of the method: as §1

[5] = compound: C[C@@H]1COCCN1C2=NC(=NC(=C2)C3(CC3)S(=O)(=O)C)C4=C5C=CNC5=CC=C4
Summary of the method: as §1

[6] = compound: C[C@H](C1=CC=C(C=C1)C(=O)NC2=C3C=CNC3=NC=C2)N
Summary of the method: as §1

gandotinib = compound: Cc1cc(Nc2cc(CN3CCOCC3)c3nc(C)c(Cc4ccc(Cl)cc4F)n3n2)n[nH]1 [gandotinib]
Summary of the method: as §1

[7] = compound: Cc1cc(SCc2sc(-c3ccc(C(F)(F)F)cc3)nc2C)ccc1OCC(=O)O
Summary of the method: as §1

doramapimod = compound: Cc1ccc(-n2nc(C(C)(C)C)cc2NC(=O)Nc2ccc(OCCN3CCOCC3)c3ccccc23)cc1 [doramapimod]
Summary of the method: as §1

ispinesib = compound: Cc1ccc(C(=O)N(CCCN)[C@@H](c2nc3cc(Cl)ccc3c(=O)n2Cc2ccccc2)C(C)C)cc1 [ispinesib]
Summary of the method: as §1

duvelisib = compound: C[C@H](Nc1ncnc2nc[nH]c12)c1cc2cccc(Cl)c2c(=O)n1-c1ccccc1 [duvelisib]
Summary of the method: as §1

tozasertib = compound: Cc1cc(Nc2cc(N3CCN(C)CC3)nc(Sc3ccc(NC(=O)C4CC4)cc3)n2)n[nH]1 [tozasertib]
Summary of the method: as §1

Measured: log2 fold change

USP15 (UniProt Q9Y4E8)
inactive: [1] 0.027 | filanesib -0.004 | zotarolimus 0.051 | idasanutlin -0.018 | alisertib -0.043 | [2] 0.016 | gefitinib 0.028 | [3] -0.05 | lapatinib -0.021 | pictilisib -0.027 | [4] 0.04 | crizotinib -0.041 | [5] 0.05 | [6] -0.009 | gandotinib -0.043 | [7] 0.063 | doramapimod -0.045 | ispinesib -0.036

UQCRC2 (UniProt P22695)
inactive: [1] 0.066 | filanesib -0.176 | zotarolimus -0.023 | idasanutlin -0.089 | alisertib -0.039 | [2] 0.018 | gefitinib 0 | [3] 0.031 | lapatinib -0.006 | pictilisib 0.006 | [4] -0.022 | crizotinib 0.054 | [5] 0.053 | [6] -0.05 | duvelisib 0.007 | gandotinib -0.014 | tozasertib -0.001 | [7] -0.003 | doramapimod -0.04 | ispinesib 0.07

UIMC1 (UniProt Q96RL1)
inactive: [1] -0.177 | filanesib 0.228 | zotarolimus 0.007 | idasanutlin 0.118 | alisertib -0.018 | [2] 0.082 | gefitinib 0.001 | [3] 0.053 | lapatinib 0.049 | pictilisib -0.049 | [4] -0.097 | crizotinib 0.082 | [5] -0.119 | [6] 0.199 | duvelisib -0.079 | gandotinib 0.146 | tozasertib -0.017 | [7] 0.117 | doramapimod 0.047 | ispinesib 0.028

UCK2 (UniProt Q9BZX2)
inactive: [1] -0.09 | filanesib -0.002 | zotarolimus -0.019 | idasanutlin 0.008 | alisertib -0.035 | [2] -0.006 | gefitinib 0.033 | [3] 0.065 | lapatinib -0.01 | pictilisib -0.03 | [4] 0.003 | crizotinib 0.041 | [5] 0.012 | [6] -0.041 | duvelisib 0.033 | gandotinib -0.057 | tozasertib 0.014 | [7] 0.006 | doramapimod -0.003 | ispinesib 0.027

UPRT (UniProt Q96BW1)
inactive: [1] -0.027 | filanesib -0.075 | zotarolimus 0.022 | idasanutlin 0.084 | alisertib -0.032 | [2] 0.044 | gefitinib 0.099 | [3] 0.043 | lapatinib 0.02 | pictilisib 0.066 | [4] 0.094 | crizotinib 0.036 | [5] 0.044 | [6] -0.044 | duvelisib 0.032 | gandotinib 0.061 | [7] 0.039 | doramapimod -0.046 | ispinesib -0.028

UBLCP1 (UniProt Q8WVY7)
inactive: [1] -0.046 | filanesib -0.001 | zotarolimus -0.008 | idasanutlin -0.013 | alisertib 0.028 | [2] 0.181 | gefitinib 0.044 | [3] -0.034 | lapatinib 0.021 | pictilisib 0.028 | [4] 0.063 | crizotinib 0.068 | [5] -0.007 | [6] -0.034 | gandotinib -0.06 | [7] 0.062 | doramapimod -0.061 | ispinesib 0.126

UNC93B1 (UniProt Q9H1C4)
inactive: [1] 0.069 | filanesib -0.18 | zotarolimus -0.036 | idasanutlin 0.048 | alisertib 0.134 | [2] 0.016 | gefitinib 0.048 | [3] -0.364 | lapatinib -0.019 | pictilisib 0.05 | [4] 0.032 | crizotinib -0.009 | [5] 0.031 | [6] -0.044 | duvelisib 0.355 | gandotinib -0.04 | [7] 0.03 | doramapimod -0.104 | ispinesib -0.153

UBE4A isoform 2 (UniProt Q14139)
inactive: [1] 0.037 | filanesib -0.023 | zotarolimus -0.003 | idasanutlin 0.008 | alisertib -0.003 | [2] -0.024 | gefitinib -0.056 | [3] -0.073 | lapatinib 0.022 | pictilisib 0.016 | [4] 0.036 | crizotinib -0.275 | [5] 0.069 | gandotinib -0.076 | [7] 0.117 | doramapimod -0.023 | ispinesib -0.172
active: [6] 0.29

UFL1 (UniProt O94874)
inactive: [1] 0.029 | filanesib -0.022 | zotarolimus 0.025 | idasanutlin -0.108 | alisertib -0.074 | [2] 0.212 | gefitinib 0.003 | [3] -0.071 | lapatinib -0.017 | pictilisib 0.016 | [4] 0.05 | crizotinib -0.053 | [5] -0.043 | [6] 0.067 | gandotinib -0.069 | [7] 0.106 | doramapimod -0.02 | ispinesib -0.025

4 consecutive entries already listed, quoted:
UPRT (UniProt Q96BW1)
inactive: [1] -0.027 | filanesib -0.075 | zotarolimus 0.022 | idasanutlin 0.084 | alisertib -0.032 | [2] 0.044 | gefitinib 0.099 | [3] 0.043 | lapatinib 0.02 | pictilisib 0.066 | [4] 0.094 | crizotinib 0.036 | [5] 0.044 | [6] -0.044 | duvelisib 0.032 | gandotinib 0.061 | [7] 0.039 | doramapimod -0.046 | ispinesib -0.028

UBLCP1 (UniProt Q8WVY7)
inactive: [1] -0.046 | filanesib -0.001 | zotarolimus -0.008 | idasanutlin -0.013 | alisertib 0.028 | [2] 0.181 | gefitinib 0.044 | [3] -0.034 | lapatinib 0.021 | pictilisib 0.028 | [4] 0.063 | crizotinib 0.068 | [5] -0.007 | [6] -0.034 | gandotinib -0.06 | [7] 0.062 | doramapimod -0.061 | ispinesib 0.126

UNC93B1 (UniProt Q9H1C4)
inactive: [1] 0.069 | filanesib -0.18 | zotarolimus -0.036 | idasanutlin 0.048 | alisertib 0.134 | [2] 0.016 | gefitinib 0.048 | [3] -0.364 | lapatinib -0.019 | pictilisib 0.05 | [4] 0.032 | crizotinib -0.009 | [5] 0.031 | [6] -0.044 | duvelisib 0.355 | gandotinib -0.04 | [7] 0.03 | doramapimod -0.104 | ispinesib -0.153

UBE4A isoform 2 (UniProt Q14139)
inactive: [1] 0.037 | filanesib -0.023 | zotarolimus -0.003 | idasanutlin 0.008 | alisertib -0.003 | [2] -0.024 | gefitinib -0.056 | [3] -0.073 | lapatinib 0.022 | pictilisib 0.016 | [4] 0.036 | crizotinib -0.275 | [5] 0.069 | gandotinib -0.076 | [7] 0.117 | doramapimod -0.023 | ispinesib -0.172
active: [6] 0.29

Additional records.

VAMP2 (UniProt P63027)
inactive: [1] 0.24 | filanesib -0.072 | zotarolimus 0.094 | idasanutlin -0.033 | alisertib -0.052 | [2] -0.224 | gefitinib 0.036 | [3] -0.017 | lapatinib 0.062 | pictilisib -0.039 | [4] -0.035 | crizotinib 0.071 | [5] 0.094 | [6] -0.273 | duvelisib 0.023 | gandotinib 0.033 | tozasertib 0.071 | [7] 0.069 | doramapimod 0.034 | ispinesib -0.005

URI1 (UniProt O94763)
inactive: [1] 0.011 | filanesib 0.016 | zotarolimus -0.041 | idasanutlin -0.015 | alisertib -0.004 | [2] 0.022 | gefitinib 0.008 | [3] 0.005 | lapatinib -0.023 | pictilisib -0.026 | [4] -0.012 | crizotinib -0.01 | [5] -0.104 | [6] -0.033 | duvelisib 0.014 | gandotinib 0.012 | tozasertib 0.031 | [7] -0.036 | doramapimod 0.012 | ispinesib -0.097

UFSP2 (UniProt Q9NUQ7)
inactive: [1] -0.011 | filanesib -0.04 | zotarolimus 0.088 | idasanutlin -0.026 | alisertib -0.028 | [2] 0.157 | gefitinib 0.006 | [3] 0.002 | lapatinib 0.017 | pictilisib -0.006 | [4] 0.036 | crizotinib -0.047 | [5] 0.165 | [6] 0.057 | duvelisib 0.082 | gandotinib -0.007 | tozasertib -0.008 | [7] 0.056 | doramapimod -0.034 | ispinesib 0.017

UMPS (UniProt P11172)
inactive: [1] 0.015 | filanesib -0.066 | zotarolimus -0.031 | idasanutlin -0.026 | alisertib -0.042 | [2] 0.024 | gefitinib 0.027 | [3] 0.008 | lapatinib -0.006 | pictilisib 0.033 | [4] 0.043 | crizotinib 0.015 | [5] 0.041 | [6] -0.067 | duvelisib 0.027 | gandotinib 0.03 | tozasertib 0.021 | [7] -0.006 | doramapimod -0.048 | ispinesib 0.05

UQCRFS1 (UniProt P47985)
inactive: [1] 0 | filanesib -0.089 | zotarolimus 0 | idasanutlin 0.05 | alisertib -0.089 | [2] 0.019 | gefitinib 0.003 | [3] 0.006 | lapatinib -0.03 | pictilisib 0.016 | [4] -0.014 | crizotinib 0.064 | [5] 0.059 | [6] -0.106 | duvelisib 0.045 | gandotinib -0.035 | tozasertib -0.033 | [7] -0.055 | doramapimod -0.058 | ispinesib 0.008

VCL (UniProt P18206)
inactive: [1] 0.032 | filanesib -0.046 | zotarolimus -0.005 | idasanutlin -0.014 | alisertib -0.078 | [2] -0.012 | gefitinib -0.005 | [3] 0.006 | lapatinib -0.012 | pictilisib -0.008 | [4] -0.033 | crizotinib 0.022 | [5] 0.004 | [6] -0.059 | duvelisib 0 | gandotinib -0.019 | tozasertib -0.022 | [7] -0.023 | doramapimod -0.02 | ispinesib 0.073

UQCC2 (UniProt Q9BRT2)
inactive: [1] 0.02 | filanesib -0.067 | zotarolimus 0.011 | idasanutlin 0.031 | alisertib -0.023 | [2] -0.039 | gefitinib -0.012 | [3] -0.006 | lapatinib -0.008 | pictilisib 0.044 | [4] -0.047 | crizotinib -0.016 | [5] 0.05 | [6] -0.064 | duvelisib 0.013 | gandotinib 0.018 | tozasertib 0.06 | [7] 0.037 | doramapimod -0.031 | ispinesib -0.032

USP34 (UniProt Q70CQ2)
inactive: [1] 0.021 | filanesib 0.011 | zotarolimus -0.03 | idasanutlin -0.239 | alisertib 0.021 | [2] 0 | gefitinib -0.024 | [3] -0.073 | lapatinib 0.011 | pictilisib 0.135 | [4] -0.049 | crizotinib -0.142 | [5] 0.046 | [6] 0.051 | gandotinib -0.131 | [7] 0.118 | doramapimod -0.006 | ispinesib -0.007

From the supplement of paper PMC10849652
